Data as given in PubChem BioAssay AID1259308 (NCATS, 2017)
Purpose: 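Genes whose loss raises luciferase production in HEK293 cells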 (primary screen). Cells: human HEK293 embryonic kidney cells stably expressing firefly luciferase (HEK-CMV-Luc2-Hygro). Reagents: single siRNA against human genes, 0.8 pmol siRNA per well. Time to read-out: 72 h. Read-out: 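Luciferase light (ONE-Glo) measured on one replicate plate set and viability (CellTiter-Glo) on the other, scaled to a negative control siRNA, with robust z-scores and luciferase per cell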. Scale: total luciferase, z-score: higher = more reporter protein produced. Call rule: 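An siRNA counts as active if its total luciferase robust z-score exceeds 3; genes with two or more such siRNAs out of three were retested with fresh siRNAs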. Calls: active = raised luciferase; inactive = no rise.
This is a random part of about 59,000 reagents. About 1,510 of them (2.6%) were called active. 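Calls use total luciferase alone and ignore viability, so some active siRNAs may act by altering cell number.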 Reagents against one gene are numbered here. Further read-outs or replicates are left out here.

no.	gene symbol	reagent no.	total luciferase, z-score	outcome
1	NKD2	1	2.64	inactive
2	NKD2	2	0.925	inactive
3	NKD2	3	0.0265	inactive
4	TMEM130	1	1.45	inactive
5	TMEM130	2	-0.425	inactive
6	TMEM130	3	-0.983	inactive
7	CBX3P2	1	0.544	inactive
8	CBX3P2	2	2.92	inactive
9	CBX3P2	3	2.12	inactive
10	PCNX1	1	0.368	inactive
11	PCNX1	2	-0.951	inactive
12	PCNX1	3	0.888	inactive
13	ZSCAN16	1	-1.04	inactive
14	ZSCAN16	2	0.493	inactive
15	ZSCAN16	3	-0.789	inactive

Ordered by “total luciferase, z-score” (descending): some entries from above.
gene symbol	reagent no.	total luciferase, z-score	outcome
TMEM130	1	1.45	inactive
TMEM130	2	-0.425	inactive

The list goes on.
no.	gene symbol	reagent no.	total luciferase, z-score	outcome
16	PSD	1	0.441	inactive
17	PSD	2	0.000289	inactive
18	PSD	3	3.67	active
19	NCBP1	1	0.697	inactive
20	NCBP1	2	0.654	inactive
21	NCBP1	3	-0.554	inactive
22	ZNF540	1	-0.642	inactive
23	ZNF540	2	-0.876	inactive
24	ZNF540	3	-1.99	inactive
